The record followed here is PMC8808184.

By UniProt entry, the sequences of proteins in these tests, tags left out. Residues count along the entry.
UniProt Q06481, residues 46-205: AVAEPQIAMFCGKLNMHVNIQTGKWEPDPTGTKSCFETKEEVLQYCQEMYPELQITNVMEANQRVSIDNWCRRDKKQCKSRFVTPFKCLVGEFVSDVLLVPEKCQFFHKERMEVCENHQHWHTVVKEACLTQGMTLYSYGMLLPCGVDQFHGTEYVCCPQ
UniProt P12023, residues 28-189: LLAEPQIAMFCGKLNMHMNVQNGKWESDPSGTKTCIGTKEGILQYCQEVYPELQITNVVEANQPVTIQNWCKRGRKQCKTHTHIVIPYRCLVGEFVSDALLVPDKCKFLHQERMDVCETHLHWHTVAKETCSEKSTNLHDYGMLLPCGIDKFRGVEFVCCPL

Results are given in words; binding and its absence hold for the method and conditions named.

Assay [1] concerns the target E1 domain of APLP2 (species not named; size-exclusion chromatography) (not stated (human, chicken and zebrafish APLP2 used)) (UniProt Q06481). Description: SEC; size-exclusion chromatography of the purified fragments; both purified.
The target of assay [2] is E1 domain of APP (species not named; size-exclusion chromatography) (not stated (chicken, human and mouse APP and zebrafish APPb made)) (UniProt P12023). Described as above.

Consider “E1 domain of APLP2 (species not named; size-exclusion chromatography) (from UniProt Q06481 46-205) (domain or fragment)”, for which the binding result in assay [1] was “no binding”.
Turning to “E1 domain of APP (species not named; size-exclusion chromatography) (from UniProt P12023 28-189) (domain or fragment)”, in assay [2], the binding entry is “no binding”.
